Square brackets hold non-standard residues; d marks the D form. Ends that are not written are not given here. * marks the point of attachment. Arg(NO2) = N=C(NCCC[C@H](N)C(=O)O)N[N+](=O)[O-]; Cbz = O=C(OCc1ccccc1)*; OBn = c1ccc(CO*)cc1; GABA = NCCCC(=O)O; OtBu = CC(C)(C)O*; βAla = NCCC(=O)O; Sar = CNCC(=O)O

Drawing on US4001199 (dated 1977), this text covers step yield for 61 substances.

One series in a line: peptide synthesis. As to conditions: coupling step, acetate.
In the case of Di-Z-(α,γ-Dab-Arg(NO2 )-Gly-Phe-Phe-NH2, the step yield worked out at 78%.

Regarding {Cbz-βAla}-[Arg(NO2)]GFFY-NH2, the step yield is 62%. In the case of {Cbz-βAla}-[Arg(NO2)]GFF-NH2, the step yield stood at 83.3%. Cbz-[dA][Arg(NO2)]GFF-NH2 yielded a step yield of 92%.

Substance Cbz-[Arg(NO2)]GFFY-NH2 displayed a step yield of 91.8%. For the substance {Cbz-βAla}-[Arg(NO2)]GFFYL-OBn, the step yield was determined as 87.9%. As for di-Z-Lys-Arg(NO2)-Gly-Phe-Phe-Tyr-NH2, the step yield was determined as 58%. Regarding Cbz-[Sar]FFY-NH2, the step yield amounted to 83.8%. Cbz-F[Arg(NO2)]GFF-NH2 gave a step yield of 92%. Turning to Z-β-Ala-Phe-Phe-Tyr-NH2, the step yield was 88.0%. With {Cbz-βAla}-[Arg(NO2)]GFFYTP-OtBu, the step yield was 67.4%. Take {Cbz-GABA}-[Arg(NO2)]GFF-NH2: the step yield turned out to be 65%. On the same count and under the same terms, the result for Z-Thr-Pro-Lys(BOC)-Ala-O^t Bu reads 93%. As for {Cbz-βAla}-[Arg(NO2)]GFFY-OEt, the step yield stood at 82%. On the same count and under the same terms, the same measure for Z-ε-Acap-Arg-Pro-Phe-Phe-Tyr-NH2: 79.1%; for {Cbz-βAla}-[Arg(NO2)]PFFY-NH2: 80.9%.

Cbz-L[Arg(NO2)]GFFY-NH2 showed a step yield of 70.9%. The same measure, in the same setting: the result for {Cbz-βAla}-[Arg(NO2)][Sar]FFY-NH2 reads 76.5%; that for Cbz-[Arg(NO2)]GFF-NH2, 72.7%. In the case of Z-δ-Aval-Arg(NO2)-Gly-Phe-Phe-NH2, the step yield was found to be 70%. With Z-ε-Acap-Arg(NO2)-Gly-Phe-Phe-Tyr-NH2, the step yield was 57%.

The substance diZ-Lys-Arg(NO2)-Gly-Phe-Phe-NH2 came in with a step yield of 77%.

On to Cbz-[Arg(NO2)][βAla]FFY-NH2, for which the step yield is recorded as 74.9%. For Cbz-[Arg(NO2)][Sar]FFY-NH2, the step yield was determined as 77.2%. For the substance “Z-Gly-Arg-Pro-Phe-Phe-Tyr-NH2 p-toluenesulfonate”, the step yield is listed as 89.5%. Regarding Cbz-L[Arg(NO2)]PFFY-NH2, the step yield was determined as 86.5%. Same read-out and setting: the result for “Z-Phe-Phe-Tyr-Thr-Pro-Lys(BOC)-Ala-O^t Bu” reads 100%. {Cbz-GABA}-[Arg(NO2)]GFFY-NH2 came in with a step yield of 58%. As for Cbz-[Arg(NO2)][Arg(NO2)]GFF-NH2, the step yield is 89%. “di-Z-α,γ-Dab-Arg(NO2)-Gly-Phe-Phe-Tyr-NH2” registered a step yield of 51%. Turning to “Z-Arg(NO2)-Gly-Phe-Phe-Tyr-Thr-Pro-Lys(BOC)-Ala-O^t Bu”, the step yield was 88%. Same read-out and setting: the same measure for Z-ε-Acap-Arg(NO2)-Gly-Phe-Phe-NH2: 55%; for Cbz-[Arg(NO2)]PFFY-NH2: 95.6%; for Cbz-G[Arg(NO2)]GFF-NH2: 77%. The substance {Cbz-βAla}-[Arg(NO2)][βAla]FFY-NH2 yielded a step yield of 73%. For the substance Z-Phe-Phe-Tyr-Thr-Pro-O^t Bu, the step yield stood at 89.8%.

Staying with this series, now noted: late stage modification step, acetate.
For the substance δ-Aval-Arg-Gly-Phe-Phe-NH2, the step yield turned out to be 61%.

In turn, Arg-Arg-Gly-Phe-Phe-NH2 gave a step yield of 45%. Same read-out and setting: the result for [βAla]RPFFY-NH2 reads 65.7%; that for [βAla]R[βAla]FFY-NH2, 69.1%.

ε-Acap-Arg-Gly-Phe-Phe-NH2: the step yield was found to be 51%.

Take [βAla]RGFFY-NH2: the step yield worked out at 75%. In turn, Lys-Arg-Gly-Phe-Phe-NH2 yielded a step yield of 52%. For the substance LRPFFY-NH2, the step yield was found to be 63.6%.

α,γ-Dab-Arg-Gly-Phe-Phe-NH2 came in with a step yield of 46%. As for {Cbz-βAla}-[Arg(NO2)]GFFY-OH, the step yield was found to be 98%. As to [dA]RGFF-NH2, the step yield is 73%. In the case of GRPFFY-NH2, the step yield amounted to 63.6%. Still for that read-out and setting: the result for β -Ala-Arg-Gly-Phe-Phe-NH2 reads 66%. Same read-out and setting: the same measure for KRGFFY-NH2: 50%; for Gly-Arg-Gly-Phe-Phe-NH2: 65%; for Arg-Gly-Phe-Phe-Tyr-NH2: 72.5%. [GABA]RGFFY-NH2 returned a step yield of 52%. On to [GABA]RGFF-NH2, for which the step yield came to 63%. [βAla]RGFFYL-OH showed a step yield of 64.2%. Substance [βAla]R[Sar]FFY-NH2 returned a step yield of 70.4%. LRGFFY-NH2 displayed a step yield of 55.5%. As for [βAla]RFFFY-NH2, the step yield was found to be 64%. On to ε-Acap-Arg-Gly-Phe-Phe-Tyr-NH2, for which the step yield was 62%. On the same count and under the same terms, the same measure for Arg-Pro-Phe-Phe-Tyr-NH2: 52.3%; for α,γ-Dab-Arg-Gly-Phe-Phe-Tyr-NH2: 43%.
